The experiment concerns the target mouse κ-opioid receptor (KOR) tagged with EGFP (mouse) (UniProt P33534). Put plainly: radioligand binding; two-point displacement: 1 nM [3H]-diprenorphine with or without 10 μM or 100 nM peptide on membranes of HEK293 cells stably expressing the mouse KOR; only the binder purified.

Sequences of proteins named here, by UniProt entry; tags and fusion partners are left off.
UniProt P33534: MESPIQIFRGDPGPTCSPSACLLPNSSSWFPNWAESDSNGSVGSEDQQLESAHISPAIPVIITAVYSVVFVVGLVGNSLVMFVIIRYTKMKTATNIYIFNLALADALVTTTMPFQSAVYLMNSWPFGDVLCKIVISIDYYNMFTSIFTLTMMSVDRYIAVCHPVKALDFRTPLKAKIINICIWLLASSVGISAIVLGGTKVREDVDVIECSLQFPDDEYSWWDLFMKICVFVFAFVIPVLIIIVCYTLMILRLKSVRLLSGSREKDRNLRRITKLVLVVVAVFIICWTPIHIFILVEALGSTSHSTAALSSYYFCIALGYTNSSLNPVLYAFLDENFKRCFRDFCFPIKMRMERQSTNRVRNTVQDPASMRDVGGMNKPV

Among the data in PMC8273886 are binding values, retold here.

No constants are given. Whether binding was seen depends on the method and setting. Some results given as binding are weak or reduced against the parent protein; the word gives no strength.

Turning to CYGGFLRRCIRPKLK (backbone-cyclic (c-); one disulfide bond) [helianorphin-19], the binding result is on record as “binds”.

As to CTYGGFLRCRIRPKLK (backbone-cyclic (c-); one disulfide bond) [helianorphin-18], the binding entry is “binds”.
